Reference: PubChem BioAssay AID504834 (National Center for Advancing Translational Sciences (NCATS), 2011)
In all, about 320,000 compounds went through this assay and about 22,000 (6.9%) were called active. This list was built around the results that the source calls inconclusive (neither active nor inactive); the mix of calls is not that of the screen. Calls follow the shape of the dose curve; as a rule, active = well fitted inhibition curve with a large enough effect; inconclusive = small, poorly fitted or top-dose-only effect, or another doubt; inactive = no such curve, though single readings can be large or run the other way. Where the call is inconclusive, the potency comes from a doubtful curve fit.

Test: Primary qHTS for delayed death inhibitors of the malarial parasite plastid, 96 hour incubation
Details: P. falciparum luciferase reporter growth; series mostly up to 28.7 µM; activity change, negative = inhibition: at the top concentration
Summary of the method: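 Luminescence readout: decreased luciferase signal marks inhibited growth of reporter-expressing P. falciparum in infected red cells (2% hematocrit, 0.05% parasitemia final), exposed to compound two generations (96 h, 37 C, 5% CO2).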
% is scaled to controls: 0 for no effect and ±100 for the full control effect; potency is read from the fitted curve at half-maximal effect.

Compound | activity change, negative = inhibition | Potency
c1ccc(CCNc2nc(-c3ccncc3)cs2)cc1 | inactive: 32.6% | –
CCCCCCCCCCOC(=O)Cn1c(COc2ccc(C)cc2)[n+](C)c2ccccc21 | – | inconclusive: 18.5 µM [inhibitor, single point]
CC1(C)Cc2c(cnn2-c2ccccc2)C(NC(=O)CCN2CCCCO2)C1 (centres undefined) | – | inconclusive: 18.5 µM [inhibitor, single point]
Cc1ccc(/C=C/c2ccc3cccc(O)c3n2)s1 | inactive: -50.7% | –
O=C1c2ccccc2-c2nc3ncnn3c(-c3ccccc3Cl)c21 | – | inconclusive: 9.28 µM [inhibitor, partial curve]
CCn1c(=O)c2ccccc2n2c(SCC(=O)N3CCc4ccccc4C3)nnc12 | – | inconclusive: 1.31 µM [inhibitor, full curve]
O=C(NCc1ccccc1)c1ccc(COCC(F)(F)F)o1 | inactive: 64.8% | –
Cc1c(S(=O)(=O)N2CCN(c3ccccc3)CC2)c(=O)n(C)c(=O)n1C | inactive: 27.9% | –
COc1ccc(C2(C)NC(=O)N(CC(=O)N3CCc4ccccc43)C2=O)cc1OC (centres undefined) | – | inconclusive: 18.5 µM [inhibitor, single point]
CN(Cc1ccccc1)S(=O)(=O)c1cccc(C(=O)O)c1 | inactive: -25.8% | –
COCCN(C(=O)c1ccc(N2C(=O)c3ccccc3C2=O)cc1)c1c(N)n(CC(C)C)c(=O)[nH]c1=O | inactive: 31.9% | –
CC(C)(C)c1ccc(S(=O)(=O)N2CCCCC2C(=O)NCc2ccccn2)cc1 (centres undefined) | – | inconclusive: 9.28 µM [inhibitor, partial curve, poor fit]
O=c1c2c(nc3nc(Cc4ccccc4)[nH]n13)CCC2 | – | inconclusive: 13.1 µM [inhibitor, single point]
CN1CCN(C(c2ccccc2)c2ccc(Cl)cc2)CC1 (centres undefined) | – | inconclusive: 14.7 µM [inhibitor, single point]
Nc1c(-c2ccccc2)c(CSc2nc3ccccc3[nH]2)nn1-c1ccc(Cl)cc1 | – | inconclusive: 10.4 µM [inhibitor, single point]
CC(=O)Nc1cccc(NC(=O)c2ccc(C(=O)Nc3cccc(NC(C)=O)c3)nc2)c1 | – | inconclusive: 0.0294 µM [inhibitor, full curve, poor fit]
COc1ccc(CCC(=O)Nc2ccc(OC)c(S(=O)(=O)N3CCCCC3)c2)cc1 | – | inconclusive: 0.0586 µM [inhibitor, full curve, poor fit]
O=C(O)c1ccccc1Nc1ccc(OC(F)F)cc1 | inactive: 42.9% | –
Cc1cnc(C(=O)OCC(=O)c2ccccc2)cn1 | inactive: 13.7% | –
CN(CC(=O)Nc1c(Cl)cccc1Cl)C(=O)CCC(=O)c1ccccc1 | inactive: 15.6% | –
Cc1nn(-c2ccccc2)c(Cl)c1/C=N/NC(=O)c1ccn[nH]1 | inactive: -12.8% | –
CCn1cc(CNC(=O)c2cccc([N+](=O)[O-])c2)cn1 | – | inconclusive: 6.57 µM [inhibitor, partial curve, poor fit]
Cc1cc(OCCCN2CCCC2)ccc1Cl | – | inconclusive: 2.33 µM [inhibitor, single point]

Compound | activity change, negative = inhibition | Potency
Cc1ccc2[nH]c(=O)c(CN(CC3CCCO3)C(=O)c3cccs3)cc2c1 (centres undefined) | – | inconclusive: 13.1 µM [inhibitor, partial curve]
COc1ccc(CNC(=O)c2ccc(Cn3cc(Br)cn3)o2)cc1 | inactive: 38.2% | –
CC/C(O)=C1\C(=O)CC(c2ccccc2)CC1=NCCc1c(C)[nH]c2ccc(C)cc12 (centres undefined) | – | inconclusive: 18.5 µM [inhibitor, single point]
Cc1ccccc1OCC(=O)Nc1cc(S(=O)(=O)N2CCCCC2)ccc1N1CCN(C)CC1 | – | inconclusive: 2.94 µM [inhibitor, full curve, poor fit]
O=C(NCCCNC(=O)c1cnccn1)c1cccc(F)c1 | – | inconclusive: 1.04 µM [inhibitor, full curve]
COc1ccc(CCN(C)C2CCCN(S(=O)(=O)c3ccccc3)C2)cc1OC (centres undefined) | inactive: -9.29% | –
Cc1ccc(Nc2cc(C)nc3nc(C)nn23)c(C)c1 | – | inconclusive: 13.1 µM [inhibitor, partial curve]
CN(C(=S)Nc1ccc(SC(F)F)cc1)C(c1ccccc1)c1ccccc1 | – | inconclusive: 14.7 µM [inhibitor, single point]
COc1ccc(NCc2cc(=O)oc3cc(NC(C)=O)ccc23)cc1 | inactive: -20.9% | –
Cc1ccc2sc(NNC(=O)c3ccc4c(c3)OCCO4)nc2c1C | – | inconclusive: 18.5 µM [inhibitor, single point]
O=C(Nc1cc(Cl)ccc1N1CCOCC1)c1ccc(N2CCCC2=O)cc1 | – | inconclusive: 9.28 µM [inhibitor, single point]
CC(CNC(=O)CN1C(=O)C(=O)N(C2CCCC2)C1=O)c1ccccc1 (centres undefined) | – | inconclusive: 18.5 µM [inhibitor, single point]
Cc1ccccc1CSc1nnc(C)n1N | – | inconclusive: 4.65 µM [inhibitor, partial curve, poor fit]
Cc1ccc(S(=O)(=O)N2CCC(NC(=O)c3cccnc3)CC2)cc1Cl | – | inconclusive: 6.57 µM [inhibitor, partial curve, poor fit]
Cc1cc(C(=O)OCC(=O)Nc2ccc(F)cc2F)c(C)o1 | inactive: -9.86% | –
CCOc1ccc(NC(=O)CC2C(=O)N(C)C(=S)N2CCCc2ccccc2)cc1 (centres undefined) | – | inconclusive: 20.8 µM [inhibitor, partial curve, poor fit]
Cc1nc2ccccc2n1C(=O)c1ccc(Cl)cc1[N+](=O)[O-] | inactive: 69.6% | –
CN(Cc1ccccc1)C(=O)CN1CCN(S(=O)(=O)c2ccc(Cl)c(Cl)c2)CC1 | – | inconclusive: 18.5 µM [inhibitor, single point]
COc1ccccc1NC(=O)c1ccc(NC(=O)COC(=O)C(C)C)cc1 | – | active: 6.57 µM
O=[N+]([O-])c1ccc2c(c1)C=C1CCCCC1(N1CCCC1)O2 (centres undefined) | – | inconclusive: 18.5 µM [inhibitor, single point]
CCC(=O)Nc1ccc2c(c1)ncn2-c1ccccc1OC | – | inconclusive: 10.4 µM [inhibitor, partial curve, poor fit]
COc1ccc(-c2ncc(CN3CCC(CO)(Cc4cccc(OC)c4)CC3)cn2)cc1 | – | inconclusive: 14.7 µM [inhibitor, single point]
CC(=O)[C@H]1[C@H](c2cccc(Cl)c2)C(C#N)(C#N)[C@@H]2c3ccccc3C=CN21 | – | inconclusive: 18.5 µM [inhibitor, single point]

Record cards, from the list above. Order of values: activity change, negative = inhibition	Potency
CCn1cc(CNC(=O)c2cccc([N+](=O)[O-])c2)cn1 is listed as –	inconclusive: 6.57 µM [inhibitor, partial curve, poor fit]
Cc1ccccc1CSc1nnc(C)n1N is listed as –	inconclusive: 4.65 µM [inhibitor, partial curve, poor fit]
COc1ccc(CCC(=O)Nc2ccc(OC)c(S(=O)(=O)N3CCCCC3)c2)cc1 is listed as –	inconclusive: 0.0586 µM [inhibitor, full curve, poor fit]

The list continues.

Compound | activity change, negative = inhibition | Potency
Cc1ccc(NC(=O)CSC2=NN3CCCC(=O)N=C3S2)cc1Cl | – | inconclusive: 2.08 µM [inhibitor, partial curve, poor fit]
c1ccc(N2N=C(c3cccs3)CC2c2ccco2)cc1 (centres undefined) | – | inconclusive: 10.4 µM [inhibitor, partial curve]
COc1ccc(C)cc1-n1c(=O)c2ccccc2c2ccccc2c1=O | inactive: 39.1% | –
C=CCNS(=O)(=O)c1nc(C)c(Cl)c(C)c1C#N | – | inconclusive: 0.147 µM [inhibitor, full curve, poor fit]
CCOc1ccc(CCNC(=O)C2CCN(S(=O)(=O)N3CC(C)CC(C)C3)CC2)cc1OCC (centres undefined) | inactive: -12.4% | –
CCOc1ccc(S(=O)(=O)N2CCOCC2)cc1NC(=O)CN1C(=O)NC(CC)(c2ccccc2)C1=O (centres undefined) | – | inconclusive: 0.657 µM [inhibitor, partial curve]
C/C(=N\NC(=O)c1ccc(Cn2cc([N+](=O)[O-])cn2)o1)c1cccc(NC(=O)C(C)C)c1 | – | inconclusive: 10.4 µM [inhibitor, partial curve]
CCOC(=O)C(=CNc1nc2ccc(C(=O)OCC)cc2s1)C(=O)OCC | inactive: 25.4% | –
CCOC(=O)c1cccc(NC(=O)CSc2nc3cccnc3n2C)c1 | – | inconclusive: 9.28 µM [inhibitor, single point]
CCN1CCc2c(sc(NC(=O)c3ccc4ccccc4c3)c2C(N)=O)C1 | – | inconclusive: 14.7 µM [inhibitor, single point]
COCCCNC(=O)Cn1nc(-c2cccc(OC)c2)ccc1=O | – | active: 10.4 µM
CN(C(=O)CSc1nnc(-c2ccco2)n1Cc1ccccc1)C1CCS(=O)(=O)C1 (centres undefined) | inactive: -22.8% | –
S=C1NCCc2ccccc2C1c1ccccc1Cl (centres undefined) | – | inconclusive: 11.7 µM [inhibitor, partial curve, poor fit]
Cc1ccc(OCC(=O)Nc2ccc3c(c2)C(=O)NC3=O)cc1 | – | inconclusive: 18.5 µM [inhibitor, single point]
NC(=O)c1ccc(C2SCC(=O)N2Cc2ccccc2)cc1 (centres undefined) | – | inconclusive: 16.5 µM [inhibitor, partial curve, poor fit]
C1CC(CN2CCOCC2)CN(Cc2nc(CC3CC3)no2)C1 (centres undefined) | inactive: 30.8% | –
CC(N)c1ccc(Cl)cc1Cl (centres undefined) | – | inconclusive: 18.5 µM [inhibitor, single point]
CSc1ccccc1OCc1cc(C(=O)N(C)Cc2ccc(C)o2)no1 | – | inconclusive: 20.8 µM [inhibitor, single point]
COC(=O)c1c(NC(=S)Nc2ccc(F)cc2[N+](=O)[O-])sc2c1CCCCC2 | – | inconclusive: 18.5 µM [inhibitor, single point]
Cn1nnnc1Sc1ncnc2scc(-c3ccc(Cl)cc3)c12 | – | active: 3.7 µM
Cn1c(=O)n(C)c2cc([N+](=O)[O-])c(N3CCN(C(=O)C(C)(C)C)CC3)cc21 | – | inconclusive: 11.7 µM [inhibitor, partial curve, poor fit]
Cc1ccc(Cn2c(Sc3nnc(C)s3)nc3c2c(=O)[nH]c(=O)n3C)cc1 | – | inconclusive: 13.1 µM [inhibitor, single point]
Cc1c(C)c2ccc(OCC(=O)NCCCn3ccnc3)c(C)c2oc1=O | – | inconclusive: 11.7 µM [inhibitor, single point]
